Drawing on publication PMC10166787, this text covers binding for eight molecules.

Chains of the proteins cited; added tags and fusions are not shown. Lines headed by an entry give the natural chain unless they say otherwise; changes in a name come on top. A line that says so, or that is headed by a name, gives the form on record, which may keep a tag or linker. Residues count along the entry.
UniProt Q9BV86: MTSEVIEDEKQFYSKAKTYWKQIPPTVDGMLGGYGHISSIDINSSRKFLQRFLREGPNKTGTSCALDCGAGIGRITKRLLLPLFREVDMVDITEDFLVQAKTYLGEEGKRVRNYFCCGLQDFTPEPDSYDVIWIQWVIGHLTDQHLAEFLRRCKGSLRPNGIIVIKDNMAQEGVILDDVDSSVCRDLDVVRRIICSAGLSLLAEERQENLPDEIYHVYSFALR
His-tagged recombinant METTL11A (pETDuet-1): residues 2-223 of Q9BV86

Numbering of substitutions follows the chain as printed. Names may count otherwise. Results are given in words; binding and its absence hold for the method and conditions named. In cells and extracts the contact can be indirect. Some results given as binding are weak or reduced against the parent protein; the word gives no strength. Where a sequence is shown, tags or fusion partners need not be part of it.

Test [1] has as its target METTL11A-FLAG (human) (UniProt Q9BV86). The experiment in a line: co-IP; HEK293T cells co-transfected with a FLAG and a GFP construct; lysis in 50 mM Tris, 300 mM NaCl, 5 mM MgCl2, 1% NP-40, 7 mM BME; anti-FLAG M2 agarose, 1 to 2 h at 4 °C; washes with PBS + 0.1% NP-40 + 500 mM NaCl; Western blot with anti-GFP. Background: In western blotting, separated proteins are transferred to a membrane and probed.

For test [2], the target named is His-tagged recombinant METTL11A (pETDuet-1) (human) (UniProt Q9BV86). The experiment in a line: pull-down; co-purification: one His-tagged and one untagged protein co-expressed in bacteria from pETDuet-1, purified by the His tag, seen on a gel.
Test [3] has as its target METTL11B-FLAG (human) (UniProt Q5VVY1). Briefly: co-IP; control HCT116 cells and METTL11A KO (CRISPR-Cas9) HCT116 cells transfected with METTL11B-FLAG and METTL13-GFP; anti-FLAG M2 agarose; washes with PBS + 0.1% NP-40 + 500 mM NaCl; Western blot with anti-GFP.
Test [4] has the same target. Briefly: co-IP; HEK293T cells co-transfected with a FLAG and a GFP construct; lysis in 50 mM Tris, 300 mM NaCl, 5 mM MgCl2, 1% NP-40, 7 mM BME; anti-FLAG M2 agarose, 1 to 2 h at 4 °C; washes with PBS + 0.1% NP-40 + 500 mM NaCl; Western blot with anti-GFP.

B1: METTL11B-GFP D232N (enzyme, UniProt Q5VVY1 1-283)
chain: MAHRGAHFAFRSRWQKTDDELCRHSMSFILHKAIRNDFFQSYLYLLEKIPLVKLYALTSQVINGEMQFYARAKLFYQEVPATEEGMMGNFIELSSPDIQASQKFLRKFVGGPGRAGTDCALDCGSGIGRVSKHVLLPVFNSVELVDMMESFLLEAQNYLQVKGDKVESYHCYSLQEFTPPFRRYDVIWIQWVSGHLTDKDLLAFLSRCRDGLKENGIIILKDNVAREGCILNLSDSSVTRDMDILRSLIRKSGLVVLGQEKQDGFPEQCIPVWMFALHSDRHS
Take B1: the binding result in test [1] is listed as “binds”.

B2: METTL11B-GFP Q67H (enzyme, UniProt Q5VVY1 1-283)
chain: B1 chain with Q67H, N232D
Turning to B2, in test [1], the binding entry is reported as “binds”.

B3: METTL11B-GFP V224L (enzyme, UniProt Q5VVY1 1-283)
chain: B1 chain with V224L, N232D
Regarding B3, the binding result in test [1] was “binds”.

B4: METTL11B-GFP F68L (enzyme, UniProt Q5VVY1 1-283)
chain: B1 chain with F68L, N232D
Regarding B4, the binding entry in test [1] is recorded as “binds”.

B5: Untagged recombinant METTL13 (pETDuet-1) (enzyme, UniProt Q8N6R0 1-699)
chain: MNLLPKSSREFGSVDYWEKFFQQRGKKAFEWYGTYLELCGVLHKYIKPREKVLVIGCGNSELSEQLYDVGYRDIVNIDISEVVIKQMKECNATRRPQMSFLKMDMTQMEFPDASFQVVLDKGTLDAVLTDEEEKTLQQVDRMLAEVGRVLQVGGRYLCISLAQAHILKKAVGHFSREGWMVRVHQVANSQDQVLEAEPQFSLPVFAFIMTKFRPVPGSALQIFELCAQEQRKPVRLESAERLAEAVQERQQYAWLCSQLRRKARLGSVSLDLCDGDTGEPRYTLHVVDSPTVKPSRDNHFAIFIIPQGRETEWLFGMDEGRKQLAASAGFRRLITVALHRGQQYESMDHIQAELSARVMELAPAGMPTQQQVPFLSVGGDIGVRTVQHQDCSPLSGDYVIEDVQGDDKRYFRRLIFLSNRNVVQSEARLLKDVSHKAQKKRKKDRKKQRPADAEDLPAAPGQSIDKSYLCCEHHKAMIAGLALLRNPELLLEIPLALLVVGLGGGSLPLFVHDHFPKSCIDAVEIDPSMLEVATQWFGFSQSDRMKVHIADGLDYIASLAGGGEARPCYDVIMFDVDSKDPTLGMSCPPPAFVEQSFLQKVKSILTPEGVFILNLVCRDLGLKDSVLAGLKAVFPLLYVRRIEGEVNEILFCQLHPEQKLATPELLETAQALERTLRKPGRGWDDTYVLSDMLKTVKIV
On to B5, for which the binding result in test [2] is reported as “binds”.

B6: METTL13-GFP (enzyme, UniProt Q8N6R0 1-699)
chain: B5 chain
Turning to B6, the binding entry in test [3], in test [1] and in test [4] was “binds” each time.

B7: METTL13 N-terminal fragment (residues M1-Y344)-GFP (domain or fragment, UniProt Q8N6R0 1-344)
chain: MNLLPKSSREFGSVDYWEKFFQQRGKKAFEWYGTYLELCGVLHKYIKPREKVLVIGCGNSELSEQLYDVGYRDIVNIDISEVVIKQMKECNATRRPQMSFLKMDMTQMEFPDASFQVVLDKGTLDAVLTDEEEKTLQQVDRMLAEVGRVLQVGGRYLCISLAQAHILKKAVGHFSREGWMVRVHQVANSQDQVLEAEPQFSLPVFAFIMTKFRPVPGSALQIFELCAQEQRKPVRLESAERLAEAVQERQQYAWLCSQLRRKARLGSVSLDLCDGDTGEPRYTLHVVDSPTVKPSRDNHFAIFIIPQGRETEWLFGMDEGRKQLAASAGFRRLITVALHRGQQY
For the molecule B7, in test [1], the binding entry is recorded as “binds”.

B8: METTL13 C-terminal fragment (residues E345-V699)-GFP (domain or fragment, UniProt Q8N6R0 345-699)
chain: ESMDHIQAELSARVMELAPAGMPTQQQVPFLSVGGDIGVRTVQHQDCSPLSGDYVIEDVQGDDKRYFRRLIFLSNRNVVQSEARLLKDVSHKAQKKRKKDRKKQRPADAEDLPAAPGQSIDKSYLCCEHHKAMIAGLALLRNPELLLEIPLALLVVGLGGGSLPLFVHDHFPKSCIDAVEIDPSMLEVATQWFGFSQSDRMKVHIADGLDYIASLAGGGEARPCYDVIMFDVDSKDPTLGMSCPPPAFVEQSFLQKVKSILTPEGVFILNLVCRDLGLKDSVLAGLKAVFPLLYVRRIEGEVNEILFCQLHPEQKLATPELLETAQALERTLRKPGRGWDDTYVLSDMLKTVKIV
B8: the binding entry in test [1] is recorded as “no binding”.
